{
  "sequences": {"note": "Protein sequences, listed by entry. Tags and fused reporters are not part of them.", "UniProt P09471, whole entry, looked up": "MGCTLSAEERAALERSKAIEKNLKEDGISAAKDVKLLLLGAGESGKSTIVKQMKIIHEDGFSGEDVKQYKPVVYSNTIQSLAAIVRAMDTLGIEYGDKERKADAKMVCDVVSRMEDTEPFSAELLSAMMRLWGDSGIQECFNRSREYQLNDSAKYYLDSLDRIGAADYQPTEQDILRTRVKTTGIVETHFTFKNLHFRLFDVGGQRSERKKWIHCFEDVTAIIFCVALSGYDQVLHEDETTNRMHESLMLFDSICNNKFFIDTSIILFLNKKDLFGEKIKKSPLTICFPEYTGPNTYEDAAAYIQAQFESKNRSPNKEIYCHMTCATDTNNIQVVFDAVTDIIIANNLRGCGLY"},
  "source": "PubChem BioAssay AID1439",
  "about": "(NMMLSC, 2008)",
  "note": "Out of some 220,000 compounds screened, about 770 (0.35%) were called active. The shares of active, inactive and inconclusive entries below differ from those in the screen. Cut-off read from the data, not from the text of the source: active = binding response below about 49% or above about 150%; inconclusive = no clear call, values can overlap the other calls; inactive = in between.",
  "data": [
    {"biological_target": "Guanine nucleotide-binding protein G(o) subunit alpha (Homo sapiens) (UniProt P09471)", "assay": "RGS7-Galphao binding modulators, primary screen, biochemical, multiplexed bead flow cytometry (AID 1439);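 note: fluorescent Galphao held in activated GDP-AlF4 state binding bead-coupled RGS7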", "conditions": "at 10 µM, actives lie on both sides", "values": [
      {"smiles": "COc1cccc(CC2(CO)CCCN(Cc3c(C)cc(C)cc3-n3cccn3)C2)c1", "note": "(stereo not given)", "binding response (% of control)": "inactive: 98.4%"},
      {"smiles": "CC(=O)N(C)c1ccc(NC(=O)Nc2ccc(C)cc2)cc1", "binding response (% of control)": "inconclusive: 109%"},
      {"smiles": "COC(=O)c1c(C)oc(C)c1S(=O)(=O)N(Cc1ccccc1)C(C)C", "binding response (% of control)": "inconclusive: 155%"},
      {"smiles": "Cc1nc2cnccc2n1C", "binding response (% of control)": "inconclusive: 105%"},
      {"smiles": "N#CCCN(Cc1ccccc1)C(=O)c1cccs1", "binding response (% of control)": "inconclusive: 32.2%"},
      {"smiles": "COC(=O)/C=C/c1c(C)[nH]c(=O)[nH]c1=O", "binding response (% of control)": "inconclusive: 103%"},
      {"smiles": "Cc1nc(C/C(=N\\Nc2ccccc2)c2ccc(O)cc2O)cs1", "binding response (% of control)": "inconclusive: 89%"},
      {"smiles": "C/C(=N\\NC(=O)COc1cc(C)cc(C)c1)c1ccc(N2CCOCC2)cc1", "binding response (% of control)": "inactive: 95.8%"},
      {"smiles": "Cc1ccc(C)c(NS(=O)(=O)c2ccc3[nH]c(=O)[nH]c3c2)c1", "binding response (% of control)": "inconclusive: 105%"},
      {"smiles": "CC1(C)C(=O)OC(c2cccs2)C2(CCCCC2)C1=O", "note": "(stereo not given)", "binding response (% of control)": "inactive: 88.9%"},
      {"smiles": "CCOC(=O)c1ccc(NC(=O)c2ccccc2N(C)S(=O)(=O)c2ccccc2)cc1", "binding response (% of control)": "inactive: 97.8%"},
      {"smiles": "O=C(OCC(=O)N1CCCc2ccccc21)c1cccc(S(=O)(=O)N2CCc3ccccc32)c1", "binding response (% of control)": "inactive: 102%"},
      {"smiles": "O=c1[nH]c(CN2CCN(S(=O)(=O)/C=C/c3ccccc3)CC2)nc2ccccc12", "binding response (% of control)": "inconclusive: 92.5%"},
      {"smiles": "COc1cc2c(cc1OC)C(c1ccccc1)CC2=O", "note": "(stereo not given)", "binding response (% of control)": "inconclusive: 75.2%"},
      {"smiles": "O=C1CC(c2ccco2)CC(O)=C1C=NCCN1CCN(C(=S)Nc2ccccc2)CC1", "note": "(stereo not given)", "binding response (% of control)": "inconclusive: 45.6%"},
      {"smiles": "O=C(O)CNC(=O)CCCn1nnc2ccccc2c1=O", "binding response (% of control)": "inconclusive: 125%"},
      {"smiles": "COc1ccccc1/C=C/C=N/NC(=O)c1cc(-c2ccco2)[nH]n1", "binding response (% of control)": "inconclusive: 281%"},
      {"smiles": "O=C1CCN(S(=O)(=O)c2ccccc2)CCN1CCOCc1ccc(Cl)cc1", "binding response (% of control)": "inconclusive: 91.9%"},
      {"smiles": "COc1cc2c3c(c1)c(N=NC(N)=S)c(O)n3C(C)(C)C=C2C", "binding response (% of control)": "inconclusive: 21.8%"},
      {"smiles": "COc1cc(OC)cc(C(=O)N[C@H](C(=O)OCC(=O)NC(=O)NC(C)(C)C)C(C)C)c1", "binding response (% of control)": "inconclusive: 88.2%"},
      {"smiles": "Cc1ccc(Sc2nc(C)c([N+](=O)[O-])c(C)c2C#N)cc1", "binding response (% of control)": "inconclusive: 91.4%"},
      {"smiles": "Cc1cc([N+](=O)[O-])ccc1NC(=O)CSc1nccc(=O)[nH]1", "binding response (% of control)": "inactive: 103%"},
      {"smiles": "O=C(O)CSCC(=O)Nc1ccc(Br)c(C(F)(F)F)c1", "binding response (% of control)": "inconclusive: 183%"},
      {"smiles": "CC(C)c1ccccc1NC(=O)CNCCc1ccc(C(F)(F)F)cc1", "binding response (% of control)": "inconclusive: 116%"},
      {"smiles": "CCOc1ccccc1NC(=O)CSc1nc2nc(-c3cccs3)cc(C(F)(F)F)c2c(=O)[nH]1", "binding response (% of control)": "inconclusive: 64.2%"},
      {"smiles": "Cc1ccc(CNC(=O)C2CC3Cn4c(nc5cc6ccccc6cc54)C3N2C)o1", "note": "(stereo not given)", "binding response (% of control)": "inconclusive: 81.9%"},
      {"smiles": "NCCCC[C@H]1CNC(=O)C(=O)N1CCc1cccc(F)c1", "binding response (% of control)": "inconclusive: 112%"},
      {"smiles": "COCCn1c(C(C)C)nc2ccccc21", "binding response (% of control)": "inconclusive: 54.9%"},
      {"smiles": "Cc1cc(N/N=C/c2cccc(F)c2)nc(NCc2ccccc2)n1", "binding response (% of control)": "inconclusive: 100%"},
      {"smiles": "C[C@@H]1C(=O)O[C@H]2[C@H]1CC[C@@]1(C)C(=O)C=C[C@@](C)(O)[C@H]21", "binding response (% of control)": "inconclusive: 92.7%"},
      {"smiles": "O=C(/C=C/c1ccc(Cl)c([N+](=O)[O-])c1)c1ccc(O)cc1", "binding response (% of control)": "inconclusive: -83.1%"},
      {"smiles": "CNc1oc(-c2cccs2)nc1S(=O)(=O)c1ccccc1", "binding response (% of control)": "inconclusive: 80.3%"},
      {"smiles": "Cc1onc(-c2ccccc2Cl)c1C(=O)OCc1cnc(Cl)s1", "binding response (% of control)": "inconclusive: 129%"},
      {"smiles": "Cc1cc(C(=O)COC(=O)/C=C/c2cccc(F)c2)c(C)n1C", "binding response (% of control)": "inconclusive: 95.1%"},
      {"smiles": "COc1cc(CNC2CCCC2)c(Br)cc1OCc1ccccc1", "binding response (% of control)": "inconclusive: 135%"},
      {"smiles": "CCOC(=O)c1cc(C)nc(SC)c1C#N", "binding response (% of control)": "inconclusive: 130%"},
      {"smiles": "Cc1ccccc1NC(=O)Oc1cccc(OC(=O)c2ccccc2)c1", "binding response (% of control)": "inconclusive: 115%"},
      {"smiles": "Cc1csc2c(N3CCN(C(=O)c4ccc(C(C)(C)C)cc4)CC3)ncnc12", "binding response (% of control)": "inconclusive: 95.1%"},
      {"smiles": "CC1CCC2(CC1)NC(=O)N(CC(=O)NC(=O)Nc1ccc3c(c1)OCCO3)C2=O", "note": "(stereo not given)", "binding response (% of control)": "inconclusive: 70.6%"},
      {"smiles": "CN(C)N=Nc1ccc2nc[nH]c2c1", "binding response (% of control)": "inconclusive: 123%"},
      {"smiles": "Cc1csc2c(N3CCN(C(=S)Nc4ccc(F)cc4F)CC3)ncnc12", "binding response (% of control)": "inconclusive: 87.3%"},
      {"smiles": "Oc1[nH]c2ccc(Br)cc2c1N=NC(=S)NCC1CCCO1", "note": "(stereo not given)", "binding response (% of control)": "inconclusive: 118%"},
      {"smiles": "CSc1cccc(NC(=S)N2CCC(N(C)C(C)C)CC2)c1", "binding response (% of control)": "inconclusive: 110%"},
      {"smiles": "Cc1nccn1S(=O)(=O)c1ccc(Br)cc1Br", "binding response (% of control)": "active: 168% [activator]"},
      {"smiles": "COc1cc(SC)ccc1C(=O)Nc1cc(C)ccn1", "binding response (% of control)": "inconclusive: 95%"}
    ]}
  ]
}
